Measurements taken from USRE44022 (COMMISSARIAT A L ENERGIE ATOMIQUE, dated 2013).
These are yes or no findings as the source states them, for the method shown. Some results given as binding are weak or reduced against the parent protein; the word gives no strength. One block for each binder: values may come before it.

Amino acid sequences for entries named in this document (tags omitted). Residues count along the entry.
UniProt P35968, residues 20-1356: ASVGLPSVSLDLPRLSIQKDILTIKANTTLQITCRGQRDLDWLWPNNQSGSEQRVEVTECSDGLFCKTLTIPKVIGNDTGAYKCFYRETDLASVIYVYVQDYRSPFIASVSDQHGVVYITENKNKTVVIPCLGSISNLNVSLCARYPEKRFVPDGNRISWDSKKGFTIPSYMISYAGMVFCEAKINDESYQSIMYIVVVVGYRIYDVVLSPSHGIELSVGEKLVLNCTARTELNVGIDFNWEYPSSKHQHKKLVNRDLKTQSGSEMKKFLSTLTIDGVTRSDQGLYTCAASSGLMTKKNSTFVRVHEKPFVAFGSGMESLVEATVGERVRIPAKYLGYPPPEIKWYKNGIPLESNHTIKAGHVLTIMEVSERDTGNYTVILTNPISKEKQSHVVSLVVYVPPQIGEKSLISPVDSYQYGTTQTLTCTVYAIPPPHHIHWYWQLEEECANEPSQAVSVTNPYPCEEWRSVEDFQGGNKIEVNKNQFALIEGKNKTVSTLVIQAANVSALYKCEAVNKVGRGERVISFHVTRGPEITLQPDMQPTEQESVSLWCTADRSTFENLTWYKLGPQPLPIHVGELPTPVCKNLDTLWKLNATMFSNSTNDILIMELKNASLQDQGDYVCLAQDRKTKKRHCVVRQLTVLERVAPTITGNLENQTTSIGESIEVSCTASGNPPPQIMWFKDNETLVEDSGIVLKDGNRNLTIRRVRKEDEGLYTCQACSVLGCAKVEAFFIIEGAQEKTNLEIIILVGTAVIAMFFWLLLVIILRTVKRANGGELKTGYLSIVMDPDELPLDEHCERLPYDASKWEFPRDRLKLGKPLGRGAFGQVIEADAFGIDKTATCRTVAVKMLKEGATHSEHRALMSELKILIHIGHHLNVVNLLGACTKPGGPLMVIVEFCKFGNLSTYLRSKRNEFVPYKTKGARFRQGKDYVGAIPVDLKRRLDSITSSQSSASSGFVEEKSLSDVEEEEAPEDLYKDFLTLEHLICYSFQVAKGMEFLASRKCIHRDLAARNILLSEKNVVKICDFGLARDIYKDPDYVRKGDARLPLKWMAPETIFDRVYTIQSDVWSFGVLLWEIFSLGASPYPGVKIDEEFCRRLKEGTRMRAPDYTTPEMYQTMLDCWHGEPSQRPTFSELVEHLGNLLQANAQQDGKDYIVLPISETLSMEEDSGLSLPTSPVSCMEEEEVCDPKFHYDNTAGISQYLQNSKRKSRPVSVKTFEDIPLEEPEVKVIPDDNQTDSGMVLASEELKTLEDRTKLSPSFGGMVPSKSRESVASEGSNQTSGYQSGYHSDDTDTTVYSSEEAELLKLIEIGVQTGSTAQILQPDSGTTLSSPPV

Target: KDR receptor (VEGFR-2) (UniProt P35968)
Experiment: displacement of 125I-VEGF from CHOm VEGFR2 cells

- binding: binds
B1: P24 (peptide)
peptide: GRIKPH
modifications: cyclic (cyclo, ends of the linear peptide coupled)
notes: Cyclopeptide; also called cyclo(Gly-Arg-Ile-Lys-Pro-His)

B2: P17 (peptide)
peptide: PRIKPHQG
modifications: cyclic (cyclo, ends of the linear peptide coupled)
notes: Cyclopeptide
- binding: binds
